How the values were obtained:
[1] = system: picrotoxin binding site on GABAA receptors; assay: [35S]-TBPS displacement (inhibition of [35S]-TBPS binding); conditions: Hill coefficient; ± standard error of the mean
Method: The IC50 values for the compounds of the examples as non-competitive displacers of [^35S]-TBPS from the picrotoxin binding site on GABAA receptors are reported in Table 1.
Results presented are from duplicate experiments performed in triplicate. Error limits are calculated as standard error of the mean. Methods used are known in the art (see, e.g., Jiang, et al., Neurosteroid analogues. 9. Conformationally constrained pregnanes: structure-activity studies of 13,24-cyclo-18,21-dinorcholane analogues of the GABA modulatory and anesthetic steroids (3α,5α)- and (3α,5β)-3-hydroxypregnan-20-one. J. Med. Chem. 2003, 46, 5334-5348).

[2] = system: Tadpole; assay: Tadpole loss of righting (LRR) and loss of swimming (LSR) reflexes; assay type: in vivo; conditions: ± SEM; for Tadpole LRR nHill: loss of righting reflex; for Tadpole LSR nHill: loss of swimming reflex
Description: Table 3 discloses the anesthetic effects of the compounds of the present disclosure. In particular, the anesthetic effect of the compounds of the present disclosure on Loss of Righting Reflex (LRR) and Loss of Swimming Reflex (LSR).
Methods used are known in the art (see, e.g., Jiang, et al., Neurosteroid analogues. 9. Conformationally constrained pregnanes: structure-activity studies of 13,24-cyclo-18,21-dinorcholane analogues of the GABA modulatory and anesthetic steroids (3α,5α)- and (3α,5β)-3-hydroxypregnan-20-one. J. Med. Chem. 2003, 46, 5334-5348). Error limits are calculated as standard error of the mean (N=10 or more animals at each of five or more different concentrations).

Row | SMILES | nHill, inhibition of [35S]-TBPS binding [1] | Tadpole LRR nHill [2] | Tadpole LSR nHill [2]
1 | CO[C@H]1[C@H]2CC[C@H]3[C@@H](CC[C@@]4(C)C(=O)CC[C@H]34)[C@]2(C)CC[C@@H]1O [KK-117, (3β,4α,5β,8α,9β,10α,13α,14β)-3-Hydroxy-4-methoxyandrostan-17-one] | 0.98 ± 0.11 | −1.84 ± 0.32 | −20 ± 0.6
2 | C[C@]1(O)CC[C@]2(C)[C@@H](CC[C@H]3[C@H]2CC[C@@]2(C)C(=O)CC[C@H]32)C1 [KK-26, (3β,5α,8α,9β,10α,13α,14β)-3-Hydroxy-3-methylandrostan-17-one] | 1.15 ± 0.13 | −4.68 ± 0.01 | −33 ± 0.2
3 | C[C@@]12CC[C@H](O)C[C@H]1CC[C@H]1[C@H]2CC[C@@]2(C)C=C(C#N)C[C@H]12 [KK-141, (3β,5β,8α,9β,10α,13α,14β)-3-Hydroxyandrost-16-ene-16-carbonitrile] | 1.10 ± 0.13 | – | –
4 | C[C@@]12CC[C@H](O)C[C@H]1CC[C@@H]1[C@H]3CC(=O)C[C@@H]3CC[C@H]12 [KK-114] | 1.06 ± 0.14 | −4.32 ± 11.8 | –
5 | C[C@@]12CC[C@@H]3[C@H](CC[C@H]4C[C@@H](O)CC[C@]43C)[C@H]1C[C@@H](C#N)C2 [KK-137, (3β,5α,8α,9β,10α,13α,14β,16α)-3-Hydroxyandrost-16-carbonitrile] | 0.86 ± 0.09 | −2.13 ± 0.07 | −33 ± 0.1
6 | C[C@@]12CC[C@H]3[C@@H]4CC[C@H](O)C[C@H]4CC[C@@H]3[C@H]1CC(=O)C2 [KK-103] | 0.86 ± 0.06 | −4.04 ± 4.06 | −33 ± 0.1
7 | C[C@]1(O)CC[C@]2(C)[C@H](CC[C@H]3[C@H]2CC[C@@]2(C)C(=O)CC[C@H]32)C1 [KK-23, (3β,5β,8α,9β,10α,13α,14β)-3-Hydroxy-3-methylandrostan-17-one] | 0.94 ± 0.12 | −1.39 ± 0.86 | −21 ± 0.5
8 | CO[C@H]1CC[C@]2(C)CC[C@@H]3[C@H](CC[C@@H]4C[C@@H](O)CC[C@]43C)[C@@H]12 [MQ-117, (3β,5β,8α,9β,10α,13α,14β,15α)-15-Methxoyandrostan-3-ol] | 0.54 ± 0.08 | −1.94 ± 0.12 | −19 ± 0.5
9 | CO[C@@H]1C[C@@H]2[C@H]3CC[C@@H]4C[C@@H](O)CC[C@@]4(C)[C@@H]3CC[C@@]2(C)C1 [KK-134, (3β,5β,8α,9β,10α,13α,14β,16α)-16-Methoxyandrostan-3-ol] | 0.89 ± 0.07 | – | –
10 | C[C@@]12CC[C@@H]3[C@H](CC[C@@H]4C[C@@H](O)CC[C@]43C)[C@H]1CC(=O)C2 [MQ-35, (3β,5β,8α,9β,10α,13α,14β)-3-Hydroxyandrostan-16-one] | 0.92 ± 0.07 | −2.90 ± 0.1 | −36 ± 0.1
11 | CO[C@H]1[C@H]2CC[C@@H]3[C@H]4CC(=O)C[C@]4(C)CC[C@H]3[C@]2(C)CC[C@@H]1O [KK-122, (3β,4α,5β,8α,9β,10α,3α,14β)-3-Hydroxy-4-methoxyandrostan-16-one] | 1.15 ± 0.15 | −2.75 ± 1.13 | −36 ± 0.1
12 | C[C@@]12CC[C@@H]3[C@H](CC(=O)[C@@H]4C[C@@H](O)CC[C@@]34C)[C@H]1CC(=O)C2 [MQ-124, (3β,5β,8α,9β,10α,13α,14β)-3-Hydroxyandrostane-6,16-dione] | 1.02 ± 0.10 | – | –
13 | CC(=O)[C@@H]1C[C@@H]2[C@H]3CC[C@@H]4C[C@@H](O)CC[C@@]4(C)[C@@H]3CC[C@@]2(C)C1 [KK-135, (3β,5β,8α,9β,10α,13α,14β,16α)-16-Acetylandrostan-3-ol] | 1.05 ± 0.06 | – | –
14 | C[C@@]12CC[C@@H]3[C@H](CC[C@@H]4C[C@@H](O)CC[C@]43C)[C@H]1CC(=CC#N)C2 [KK-138, 2-[(3β,5β,8α,9β,10α,13α,14β)-3-Hydroxyandrostan-16-ylidene]-acetonitrile] | 1.00 ± 0.08 | −1.94 ± 0.08 | −20 ± 0.0
15 | C[C@@]12CC[C@H](O)C[C@@H]1CC[C@H]1[C@H]2CC[C@@]2(C)C=C(C#N)C[C@H]12 [KK-136, (3β,5α,8α,9β,10α,13α,14β)-3-Hydroxyandrost-16-ene-16-carbonitrile] | 1.01 ± 0.07 | −2.32 ± 0.12 | −36 ± 0.1
16 | C[C@@]12CC[C@@H]3[C@H](CC[C@H]4C[C@@H](O)CC[C@]43C)[C@H]1CC(=O)C2 [KK-97, (3β,5α,8α,9β,10α,13α,14β)-3-Hydroxyandrostan-16-one] | 0.94 ± 0.05 | −1.35 ± 0.31 | −36 ± 0.1
17 | C[C@@]12CC[C@H]3[C@@H]4CC[C@H](O)C[C@@H]4CC[C@@H]3[C@H]1CC(=O)C2 [KK-102] | 0.98 ± 0.11 | −4.29 ± 6.63 | −33 ± 0.1
18 | C[C@@]12CC[C@H]3[C@@H]4CC[C@H](O)C[C@H]4CC[C@@H]3[C@H]1CCC2=O [KK-18, (3β,5β,8α,9β,10α,13α,14β)-3-Hydroxyestran-17-one] | 1.31 ± 0.22 | −1.98 ± 2.03 | –
19 | CO[C@@H]1C[C@@H]2[C@H]3C[C@H](OC)[C@@H]4C[C@@H](O)CC[C@@]4(C)[C@@H]3CC[C@@]2(C)C1 [MQ-125, (3β,5β,6α,8α,9β,10α,13α,14β,16α)-6,16-Dimethoxyandrostan3-ol] | 0.95 ± 0.07 | – | –
20 | C[C@@]12CC[C@@H]3[C@H](CC[C@@H]4C[C@@H](O)CC[C@]43C)[C@H]1C[C@@H](C#N)C2 [KK-142, (3β,5β,8α,9β,10α,13α,14β,16α)-3-Hydroxyandrost-16-carbonitrile] | 0.81 ± 0.05 | – | –

— patent US10202413B2, “Neuroactive enantiomeric 15-, 16- and 17-substituted steroids as modulators for GABA type-A receptors” (priority 2013, dated 2019)
